In the supplement of paper PMC6078165:
± gives the standard deviation of the averaged measurements. The reference is the same well before dosing, and untreated signal decays as well.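 Fibroblast labels denote human fibroblasts, mainly primary ones from uterus (C12385, HUF), lung (H6013), bone (Hs27A), adrenal (HADF) and skin (WS1), plus mammary HMF and breast cancer-associated Hs343T. Cancer cells are basal-like or mesenchymal-like triple-negative breast cancer lines. A hit is a response shift exceeding 3x replicate standard deviation. The tissue of the other fibroblasts is not given here.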

Test system: MDAMB436
Test: relative JC-1 red fluorescence (viability) vs pre-drug, coculture with fibroblast (fraction); higher = more viable cancer cells
Experimental: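 JC-1 labelled TNBC cells cocultured 1:1 (1,500 cells each) with CellTrace Violet stained primary or stromal fibroblasts in 384-well plates in FluoroBrite medium, treated with one of 42 anticancer drugs at 0.1, 1, 10 or 100 uM. JC-1 red fluorescence (mitochondrial integrity in cancer cells only) was read by plate reader every 8 h for 72 h. Values are normalised to each well's pre-drug value. The stock of one drug was tenfold lower, so its dose labels may be too high.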

COc1cc([C@@H]2c3cc4c(cc3[C@@H](O[C@@H]3O[C@@H]5CO[C@@H](c6cccs6)O[C@H]5[C@H](O)[C@H]3O)[C@H]3COC(=O)[C@H]23)OCO4)cc(OC)c1O [Teniposide]
relative JC-1 red fluorescence
Conditions	8 h	16 h	24 h	32 h	40 h	48 h	56 h	64 h	72 h
10 µM, coculture fibroblast: C12385	0.817 ± 0.023	0.792 ± 0.0087	0.7941 ± 0.0012	0.73 ± 0.014	0.706 ± 0.042	0.683 ± 0.05	0.67 ± 0.065	0.656 ± 0.075	0.66 ± 0.087
10 µM, coculture fibroblast: H6013	0.87 ± 0.01	0.8586 ± 0.0025	0.86932 ± 6.4e-06	0.877 ± 0.013	0.872 ± 0.014	0.898 ± 0.022	0.873 ± 0.026	0.861 ± 0.043	0.83 ± 0.042
10 µM, coculture fibroblast: H6019	0.7842 ± 0.0072	0.769 ± 0.0064	0.77 ± 0.0095	0.718 ± 0.017	0.699 ± 0.026	0.696 ± 0.016	0.69 ± 0.015	0.683 ± 0.012	0.685 ± 0.013
10 µM, coculture fibroblast: H6076	0.794 ± 0.029	0.753 ± 0.063	0.749 ± 0.056	0.714 ± 0.076	0.708 ± 0.082	0.682 ± 0.081	0.684 ± 0.092	0.681 ± 0.099	0.679 ± 0.1
10 µM, coculture fibroblast: H6231	0.7148 ± 0.0045	0.647 ± 0.034	0.691 ± 0.04	0.613 ± 0.036	0.605 ± 0.044	0.575 ± 0.052	0.582 ± 0.062	0.565 ± 0.061	0.559 ± 0.066
10 µM, coculture fibroblast: HADF	0.8088 ± 0.0053	0.805 ± 0.02	0.805 ± 0.03	0.788 ± 0.038	0.793 ± 0.048	0.835 ± 0.068	0.78 ± 0.075	0.784 ± 0.079	0.749 ± 0.085
10 µM, coculture fibroblast: HCFa	0.856 ± 0.018	0.84225 ± 0.00012	0.837 ± 0.0013	0.845 ± 0.01	0.861 ± 0.012	0.899 ± 0.018	0.853 ± 0.034	0.862 ± 0.042	0.823 ± 0.034
10 µM, coculture fibroblast: HCPF	0.797 ± 0.047	0.766 ± 0.056	0.767 ± 0.068	0.693 ± 0.074	0.673 ± 0.09	0.631 ± 0.096	0.622 ± 0.11	0.603 ± 0.1	0.588 ± 0.11
10 µM, coculture fibroblast: HHSteC	0.8586 ± 0.0078	0.861 ± 0.025	0.854 ± 0.03	0.847 ± 0.041	0.863 ± 0.048	0.887 ± 0.057	0.849 ± 0.07	0.835 ± 0.085	0.787 ± 0.1
10 µM, coculture fibroblast: HMF	0.807 ± 0.077	0.78 ± 0.091	0.774 ± 0.1	0.74 ± 0.11	0.729 ± 0.11	0.682 ± 0.11	0.683 ± 0.11	0.656 ± 0.12	0.649 ± 0.12
10 µM, coculture fibroblast: HPFa	0.88 ± 0.022	0.875 ± 0.015	0.87 ± 0.021	0.856 ± 0.016	0.8652 ± 0.0078	0.8892 ± 0.0057	0.8313 ± 0.0052	0.8241 ± 0.00086	0.777 ± 0.01
10 µM, coculture fibroblast: HUF	0.848 ± 0.014	0.8088 ± 0.0049	0.8151 ± 0.0079	0.769 ± 0.023	0.743 ± 0.021	0.73 ± 0.031	0.71 ± 0.029	0.712 ± 0.036	0.719 ± 0.027
10 µM, coculture fibroblast: Hs5	0.8 ± 0.037	0.781 ± 0.019	0.784 ± 0.017	0.737 ± 0.027	0.724 ± 0.035	0.675 ± 0.047	0.683 ± 0.067	0.653 ± 0.08	0.65 ± 0.091
10 µM, coculture fibroblast: Hs27A	0.872 ± 0.051	0.8691 ± 0.0043	0.889 ± 0.018	0.908 ± 0.031	0.912 ± 0.076	0.848 ± 0.11	0.8 ± 0.07	0.794 ± 0.075	0.754 ± 0.027
10 µM, coculture fibroblast: Hs343T	0.819 ± 0.051	0.784 ± 0.039	0.771 ± 0.031	0.73 ± 0.039	0.699 ± 0.029	0.665 ± 0.026	0.647 ± 0.025	0.634 ± 0.018	0.643 ± 0.018
10 µM, coculture fibroblast: WS1	0.8 ± 0.025	0.7689 ± 0.0061	0.7582 ± 0.00094	0.7015 ± 0.0032	0.6664 ± 0.0035	0.651 ± 0.0078	0.632 ± 0.019	0.609 ± 0.026	0.605 ± 0.031
100 µM, coculture fibroblast: C12385	0.881 ± 0.058	0.874 ± 0.054	0.891 ± 0.069	0.859 ± 0.062	0.87 ± 0.07	0.898 ± 0.075	0.931 ± 0.072	0.935 ± 0.073	0.944 ± 0.076
100 µM, coculture fibroblast: H6013	0.922 ± 0.04	0.891 ± 0.12	0.847 ± 0.023	0.905 ± 0.028	0.777 ± 0.079	0.909 ± 0.012	0.783 ± 0.025	0.746 ± 0.016	0.847 ± 0.079
100 µM, coculture fibroblast: H6019	0.8889 ± 0.0034	0.87875 ± 0.0002	0.902 ± 0.014	0.886 ± 0.028	0.951 ± 0.039	0.884 ± 0.13	0.879 ± 0.16	0.785 ± 0.038	0.864 ± 0.18
100 µM, coculture fibroblast: H6076	0.85 ± 0.031	0.852 ± 0.021	0.901 ± 0.0092	0.88826 ± 0.00034	0.9336 ± 0.0062	0.95 ± 0.015	0.955 ± 0.064	0.794 ± 0.07	0.8965 ± 0.0049
100 µM, coculture fibroblast: H6231	0.757 ± 0.076	0.742 ± 0.071	0.836 ± 0.09	0.777 ± 0.11	0.807 ± 0.12	0.813 ± 0.13	0.845 ± 0.13	0.858 ± 0.13	0.856 ± 0.15
100 µM, coculture fibroblast: HADF	0.938 ± 0.019	0.969 ± 0.015	0.984 ± 0.017	0.941 ± 0.071	0.753 ± 0.026	0.841 ± 0.12	0.75 ± 0.043	0.764 ± 0.05	0.863 ± 0.045
100 µM, coculture fibroblast: HCFa	0.923 ± 0.024	0.929 ± 0.015	0.947 ± 0.018	0.922 ± 0.091	0.765 ± 0.064	0.8792 ± 0.0046	0.73 ± 0.015	0.765 ± 0.1	0.766 ± 0.049
100 µM, coculture fibroblast: HCPF	0.787 ± 0.056	0.786 ± 0.064	0.825 ± 0.055	0.792 ± 0.056	0.817 ± 0.056	0.821 ± 0.047	0.843 ± 0.055	0.844 ± 0.058	0.848 ± 0.062
100 µM, coculture fibroblast: HHSteC	0.964 ± 0.034	0.833 ± 0.18	0.875 ± 0.13	0.936 ± 0.036	0.963 ± 0.049	0.815 ± 0.17	0.907 ± 0.12	0.887 ± 0.14	0.884 ± 0.11
100 µM, coculture fibroblast: HMF	0.844 ± 0.02	0.84 ± 0.034	0.903 ± 0.049	0.888 ± 0.043	0.909 ± 0.059	0.92 ± 0.08	0.822 ± 0.12	0.918 ± 0.012	0.917 ± 0.012
100 µM, coculture fibroblast: HPFa	0.9878 ± 0.0058	0.857 ± 0.19	0.911 ± 0.12	0.831 ± 0.11	0.802 ± 0.052	0.7208 ± 0.0017	0.883 ± 0.16	0.817 ± 0.069	0.902 ± 0.1
100 µM, coculture fibroblast: HUF	0.921 ± 0.051	0.91 ± 0.051	0.934 ± 0.059	0.916 ± 0.082	0.794 ± 0.085	0.833 ± 0.089	0.91113 ± 0.00022	0.802 ± 0.15	0.839 ± 0.13
100 µM, coculture fibroblast: Hs5	0.859 ± 0.059	0.867 ± 0.053	0.892 ± 0.061	0.87 ± 0.061	0.886 ± 0.069	0.865 ± 0.048	0.883 ± 0.04	0.878 ± 0.028	0.875 ± 0.027
100 µM, coculture fibroblast: Hs27A	0.983 ± 0.014	0.852 ± 0.065	0.763 ± 0.03	0.768 ± 0.11	0.808 ± 0.073	0.766 ± 0.052	0.753 ± 0.0089	0.744 ± 0.04	0.811 ± 0.095
100 µM, coculture fibroblast: Hs343T	0.771 ± 0.014	0.7845 ± 0.0065	0.8096 ± 0.0021	0.875 ± 0.15	0.87 ± 0.13	0.852 ± 0.11	0.893 ± 0.13	0.909 ± 0.11	0.887 ± 0.05
100 µM, coculture fibroblast: WS1	0.889 ± 0.032	0.865 ± 0.033	0.891 ± 0.034	0.854 ± 0.046	0.89 ± 0.059	0.915 ± 0.047	0.926 ± 0.049	0.93 ± 0.053	0.937 ± 0.064
